Data on two molecules can be found in PMC7249048.

No constants are given. Whether binding was seen depends on the method and setting. Some entries that bind do so weakly or less than the wild type.

One assay addresses T1, AtBBD2 (Arabidopsis) (UniProt Q93VH2).
T1 sequence: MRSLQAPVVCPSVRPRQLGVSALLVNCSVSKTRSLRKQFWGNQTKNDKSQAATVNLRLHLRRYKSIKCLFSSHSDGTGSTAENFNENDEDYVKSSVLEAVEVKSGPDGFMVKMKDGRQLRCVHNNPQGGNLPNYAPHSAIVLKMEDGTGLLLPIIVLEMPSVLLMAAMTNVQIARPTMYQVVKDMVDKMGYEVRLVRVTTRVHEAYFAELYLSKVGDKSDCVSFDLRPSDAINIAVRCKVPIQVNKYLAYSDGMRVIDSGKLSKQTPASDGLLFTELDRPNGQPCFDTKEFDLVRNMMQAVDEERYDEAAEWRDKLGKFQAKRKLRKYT
In words: two-hybrid; … system (Clontech); pGBKT7 (GAL4 DNA binding domain) and pGADT7 (GAL4 activation domain) fusions in yeast strain AH109; growth on SD/-L-W-A-H, 30 °C, observed after five days.

The target in the next assay is AtBBD1 (Arabidopsis) (UniProt Q9FWS6). Described as above.

B1: AtBBD2 (enzyme, UniProt Q93VH2 1-329)
chain: MRSLQAPVVCPSVRPRQLGVSALLVNCSVSKTRSLRKQFWGNQTKNDKSQAATVNLRLHLRRYKSIKCLFSSHSDGTGSTAENFNENDEDYVKSSVLEAVEVKSGPDGFMVKMKDGRQLRCVHNNPQGGNLPNYAPHSAIVLKMEDGTGLLLPIIVLEMPSVLLMAAMTNVQIARPTMYQVVKDMVDKMGYEVRLVRVTTRVHEAYFAELYLSKVGDKSDCVSFDLRPSDAINIAVRCKVPIQVNKYLAYSDGMRVIDSGKLSKQTPASDGLLFTELDRPNGQPCFDTKEFDLVRNMMQAVDEERYDEAAEWRDKLGKFQAKRKLRKYT
As for B1, the binding result with AtBBD2 (Arabidopsis) is given as “binds”.

B2: AtBBD1 (enzyme, UniProt Q9FWS6 1-325)
chain: MRSVQAPVVCPAIRPRQVGACASLVNYTGLKPRSQFWGNRTKGVKSQGTTTTITLRLCNKSIKCVFSSHSDGNGSTAENFNENDEEYVNSSVVEAVEVKSGADGFMVKMRDGRQLRCVHNNPQGGHLPDYAPHPAIVLKMEDGTGLLLPIIVLEMPSVLLMAAMTNVQIARPTMYQVVKEMVDKMGYEVRLVRVTKRVHEAYFAQLFLSKVGNASECVSFDLRPSDAINIAVRCKIPIQVNKYLAYSDGMRVIESGKISTPAPASDGLLFTEQDRPNGQACLDTKEFNILSKMMQAVDEERYDEAAEWRDKLGQFRAKRNLRKYT
Take B2: the binding entry is listed as “binds” with AtBBD1 (Arabidopsis) and “no binding” in the assay with AtBBD2 (Arabidopsis).
